# Values from PubChem BioAssay AID1259254 (NCATS, 2017).
# Test: 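Finding genes that stop cells copying their DNA twice in one cycle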 (primary screen)
# Cells: human HCT116 colorectal cancer cells
# Reagent: single siRNA against human genes
# Timing: 3 days
# Measurement: 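Imaged Hoechst DNA stain sorts each cell into a cycle phase by DNA amount; per plate, G2 fraction set to 0% for non-targeting and 100% for GMNN siRNA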
# Reading the numbers: G2 robust z-score and G2 cells, % of GMNN control: higher = more G2 cells, more excess DNA replication; raw share of cells in G2: higher = larger share of cells with G2 DNA content
# Active means: 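An siRNA counts as active if its G2 robust z-score lies at least 5 MADs above the screen median; here such calls match roughly 38% of GMNN control or more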
# In all, the deposit lists about 59,000 reagents; this is an unselected part. About 1,550 of all reagents (2.6%) were called active. 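G2 share is only a proxy for re-replication; each gene was hit by three separate siRNAs, and active genes were retested.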 The raw values are shown without normalisation. Unmarked entries are inactive. The numbers tell different reagents against one gene apart. Not given: the amount of reagent.
Gene,reagent,G2 robust z-score,"G2 cells, % of GMNN control",raw share of cells in G2 (%)
SNX7,1,1.23,11.6,6.88
SNX7,2,-0.041,2.68,7.12
SNX7,3,-0.528,-0.75,3.4
OSTM1,1,-0.195,1.6,4.46
OSTM1,2,-0.679,-1.81,3.86
OSTM1,3,-0.108,2.21,3.95
GPR183,1,-0.132,2.04,6.57
GPR183,2,-0.296,0.882,4.83
GPR183,3,0.0482,3.31,4.28
LOC727799 (retired record),1,0.108,3.73,4.19
LOC727799 (retired record),2,-0.945,-3.68,2.21
LOC727799 (retired record),3,0.323,5.24,5.53
USP46-DT,1,-0.0884,2.35,4.53
USP46-DT,2,0.6,7.19,5.86
USP46-DT,3,-0.732,-2.19,2.51
SLAMF8,1,0.788,8.51,7.7
SLAMF8,2,1.5,13.5,10.9
SLAMF8,3,-0.705,-1.99,2.4
RBM7,1,-0.106,2.22,7.35
RBM7,2,1.81,15.7,8.92
RBM7,3,5.33 (active),40.5,23.3
RNF24,1,-0.781,-2.53,3.99
RNF24,2,0.814,8.7,7.73
RNF24,3,0.5,6.49,5.6
AHSA2P,1,0.47,6.27,7.34
AHSA2P,2,0.779,8.45,7.79
AHSA2P,3,-0.462,-0.282,5.82
AXL,1,-1.1,-4.78,4.03
AXL,2,0.955,9.69,8.67
AXL,3,-0.154,1.88,4.69

Records above whose gene name begins with U or u (3):
Gene,reagent,G2 robust z-score,"G2 cells, % of GMNN control",raw share of cells in G2 (%)
USP46-DT,1,-0.0884,2.35,4.53
USP46-DT,2,0.6,7.19,5.86
USP46-DT,3,-0.732,-2.19,2.51
